Taken from: PubChem BioAssay AID1259405 (NCATS, 2018)
The whole screen tested about 50,000 reagents; this is a part drawn at random. About 4,000 of them (8%) were called active. 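Mouse siRNA library applied to hamster cells; one well for each siRNA.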 The numbers tell different reagents against one gene apart.

Purpose: 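Silenced genes that increase secreted GFP made by CHO cells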 (primary screen)
Cells: Chinese hamster CHO-K1 ovary cells with stable secreted eGFP expression
Reagent: single siRNA against mouse genes, 0.8 pmol siRNA per well (2 µl of 400 nM stock)
Duration: 3 days
Measurement: 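Per-well intracellular GFP measured by laser scanning cytometry, plus viability from ATP luminescence, each relative to plate median of non-targeting control wells, in %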
Reading the numbers: GFP, % of control: higher = more GFP per well, higher productivity; viability (ATP), % of control: higher = more viable cells (more ATP)
Hit rule: 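a knock-down is called active if GFP reaches 120% or more of non-targeting control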

target gene | reagent no. | GFP, % of control | viability (ATP), % of control | Call
Zc3h4 (zinc finger CCCH-type containing 4) | 1 | 59.1 | 91.8 | inactive
Zc3h4 (zinc finger CCCH-type containing 4) | 2 | 89.3 | 107 | inactive
Zc3h4 (zinc finger CCCH-type containing 4) | 3 | 161 | 114 | active
Isg15 (ISG15 ubiquitin-like modifier) | 1 | 57.7 | 53.2 | inactive
Isg15 (ISG15 ubiquitin-like modifier) | 2 | 89 | 39.5 | inactive
Isg15 (ISG15 ubiquitin-like modifier) | 3 | 68 | 75.5 | inactive
Nrip1 (nuclear receptor interacting protein 1) | 1 | 80.5 | 91.9 | inactive
Nrip1 (nuclear receptor interacting protein 1) | 2 | 248 | 134 | active
Nrip1 (nuclear receptor interacting protein 1) | 3 | 80.5 | 91.9 | inactive
Nrip1 (nuclear receptor interacting protein 1) | 4 | 61.8 | 79.7 | inactive
Nrip1 (nuclear receptor interacting protein 1) | 5 | 93.7 | 87 | inactive
Hrh1 (histamine receptor H1) | 1 | 42.7 | 76.4 | inactive
Hrh1 (histamine receptor H1) | 2 | 84 | 92.3 | inactive
Hrh1 (histamine receptor H1) | 3 | 76.9 | 82.4 | inactive
B3galnt2 | 1 | 74.8 | 76.7 | inactive
B3galnt2 | 2 | 89 | 112 | inactive
B3galnt2 | 3 | 94.6 | 88.5 | inactive
Mtpn (myotrophin) | 1 | 78.2 | 84 | inactive
Mtpn (myotrophin) | 2 | 77 | 73 | inactive
Mtpn (myotrophin) | 3 | 66.4 | 65 | inactive

Reformatted: 5 of the entries above.
| target gene | reagent no. | GFP, % of control | viability (ATP), % of control | Call |
| --- | --- | --- | --- | --- |
| Nrip1 (nuclear receptor interacting protein 1) | 1 | 80.5 | 91.9 | inactive |
| Nrip1 (nuclear receptor interacting protein 1) | 2 | 248 | 134 | active |
| Nrip1 (nuclear receptor interacting protein 1) | 3 | 80.5 | 91.9 | inactive |
| Nrip1 (nuclear receptor interacting protein 1) | 4 | 61.8 | 79.7 | inactive |
| Nrip1 (nuclear receptor interacting protein 1) | 5 | 93.7 | 87 | inactive |

The list goes on:
target gene | reagent no. | GFP, % of control | viability (ATP), % of control | Call
Slc8b1 | 1 | 35.4 | 59.4 | inactive
Slc8b1 | 2 | 44.6 | 83.7 | inactive
Slc8b1 | 3 | 83.5 | 97.9 | inactive
Cyb561d2 (cytochrome b-561 domain containing 2) | 1 | 59.3 | 66 | inactive
Cyb561d2 (cytochrome b-561 domain containing 2) | 2 | 24.7 | 53.8 | inactive
Cyb561d2 (cytochrome b-561 domain containing 2) | 3 | 49.8 | 83.2 | inactive
Cct6b (chaperonin containing TCP1 subunit 6B) | 1 | 31.7 | 37.1 | inactive
Cct6b (chaperonin containing TCP1 subunit 6B) | 2 | 79.4 | 87.4 | inactive
Cct6b (chaperonin containing TCP1 subunit 6B) | 3 | 88.4 | 147 | inactive
Prkar2a (protein kinase, cAMP dependent regulatory, type II alpha) | 1 | 114 | 95.5 | inactive
Prkar2a (protein kinase, cAMP dependent regulatory, type II alpha) | 2 | 91.8 | 86.6 | inactive
Slamf8 (SLAM family member 8) | 1 | 88.3 | 51.1 | inactive
Slamf8 (SLAM family member 8) | 2 | 117 | 77.6 | inactive
Slamf8 (SLAM family member 8) | 3 | 70.8 | 89.3 | inactive
